Consider four molecules from PMC4464076.

Amino acid sequences for entries named in this document (tags omitted). A change or cut given only in a name is not applied to a line headed by its entry.
UniProt Q15386: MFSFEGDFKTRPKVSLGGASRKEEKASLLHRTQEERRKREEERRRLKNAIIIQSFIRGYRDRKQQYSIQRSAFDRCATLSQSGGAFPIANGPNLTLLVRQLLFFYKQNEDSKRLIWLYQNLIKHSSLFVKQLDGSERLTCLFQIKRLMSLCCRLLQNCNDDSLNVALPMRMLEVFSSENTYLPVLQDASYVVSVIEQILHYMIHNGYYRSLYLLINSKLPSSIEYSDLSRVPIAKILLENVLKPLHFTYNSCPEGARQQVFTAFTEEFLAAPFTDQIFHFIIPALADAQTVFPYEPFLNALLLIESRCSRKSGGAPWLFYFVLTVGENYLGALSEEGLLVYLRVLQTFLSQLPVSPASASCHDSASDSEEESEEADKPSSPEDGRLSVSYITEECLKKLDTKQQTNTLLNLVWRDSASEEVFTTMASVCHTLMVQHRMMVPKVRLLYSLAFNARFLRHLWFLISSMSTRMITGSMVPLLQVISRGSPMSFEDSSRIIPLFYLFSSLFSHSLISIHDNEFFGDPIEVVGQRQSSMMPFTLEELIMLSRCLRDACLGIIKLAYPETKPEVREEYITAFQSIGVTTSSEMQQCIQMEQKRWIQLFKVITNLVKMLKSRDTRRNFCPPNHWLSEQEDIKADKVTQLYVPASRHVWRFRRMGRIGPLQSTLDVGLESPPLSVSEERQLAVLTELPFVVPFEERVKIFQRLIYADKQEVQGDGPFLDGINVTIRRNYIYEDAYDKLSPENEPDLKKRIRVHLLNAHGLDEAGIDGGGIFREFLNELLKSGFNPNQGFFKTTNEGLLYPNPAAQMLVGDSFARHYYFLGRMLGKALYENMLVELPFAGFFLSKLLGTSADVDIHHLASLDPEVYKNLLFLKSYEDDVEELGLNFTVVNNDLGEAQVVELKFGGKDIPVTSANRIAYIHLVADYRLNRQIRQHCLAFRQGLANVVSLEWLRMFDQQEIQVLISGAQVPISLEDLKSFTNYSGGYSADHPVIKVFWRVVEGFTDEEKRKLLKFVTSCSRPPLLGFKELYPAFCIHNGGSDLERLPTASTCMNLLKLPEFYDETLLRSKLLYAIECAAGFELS

These are yes or no findings as the source states them, for the method shown. Binding seen in cells or lysates may run through a third protein. Some results given as binding are weak or reduced against the parent protein; the word gives no strength. For some of these results: Tags and fused reporters may be left off the sequences shown.

For experiment [1], the target named is T1, V5-tagged ANXA7 (human) (UniProt P20073).
T1 sequence: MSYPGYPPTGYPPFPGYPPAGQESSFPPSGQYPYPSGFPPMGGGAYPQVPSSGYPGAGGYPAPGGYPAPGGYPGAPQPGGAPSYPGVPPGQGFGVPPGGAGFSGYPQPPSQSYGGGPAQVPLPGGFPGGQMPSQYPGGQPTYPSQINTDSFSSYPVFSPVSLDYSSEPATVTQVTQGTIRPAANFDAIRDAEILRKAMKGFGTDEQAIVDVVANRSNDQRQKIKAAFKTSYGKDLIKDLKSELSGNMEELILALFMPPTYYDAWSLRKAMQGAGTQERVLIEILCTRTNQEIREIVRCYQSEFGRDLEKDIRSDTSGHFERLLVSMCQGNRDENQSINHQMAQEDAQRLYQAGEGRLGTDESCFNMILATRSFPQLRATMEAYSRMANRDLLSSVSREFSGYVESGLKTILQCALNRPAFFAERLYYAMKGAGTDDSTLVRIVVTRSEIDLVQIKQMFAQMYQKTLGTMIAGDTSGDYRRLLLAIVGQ
The experiment can be described thus: co-IP; 293T cells transfected with Flag-UBE3C and V5-ANXA7; reciprocal immunoprecipitation with anti-Flag and anti-V5, immunoblotting. (Immunoblotting shows a protein as a band on a membrane.)

The target in experiment [2] is T2, Annexin A7 (ANXA7), endogenous in glioma cells (human (endogenous in U87, U251 and TJ899 glioblastoma cells)) (UniProt P20073).
T2 sequence: T1 sequence
The experiment can be described thus: co-IP; endogenous proteins in glioma cell lysate (10 mM Tris pH 7.5, 150 mM NaCl, 1 mM CaCl2, 1 mM MgCl2, 1% Brij 97, 4 °C); immunoprecipitation with UBE3C or ANXA7 antibodies, immunoblotting.

The target in experiment [3] is Flag-tagged UBE3C (human) (UniProt Q15386). The experiment can be described thus: co-IP; 293T cells transfected with Flag-UBE3C and V5-ANXA7; reciprocal immunoprecipitation with anti-Flag and anti-V5, immunoblotting.
Experiment [4] has as its target Ubiquitin-protein ligase E3C (UBE3C), endogenous in glioma cells (human (endogenous in U87, U251 and TJ899 glioblastoma cells)) (UniProt Q15386). As to the kind of experiment: co-IP; endogenous proteins in glioma cell lysate (10 mM Tris pH 7.5, 150 mM NaCl, 1 mM CaCl2, 1 mM MgCl2, 1% Brij 97, 4 °C); immunoprecipitation with UBE3C or ANXA7 antibodies, immunoblotting.

Consider “Flag-tagged UBE3C (from UniProt Q15386 1-1083) (enzyme)”, for which the binding result in experiment [1] is on record as “binds”. Take “Ubiquitin-protein ligase E3C (UBE3C), endogenous in glioma cells (from UniProt Q15386 1-1083) (enzyme)”: the binding entry in experiment [2] is “binds”.

B1: V5-tagged ANXA7 (protein, UniProt P20073 1-488)
chain: T1 sequence
As to B1, the binding result in experiment [3] is listed as “binds”.

B2: Annexin A7 (ANXA7), endogenous in glioma cells (protein, UniProt P20073 1-488)
chain: T1 sequence
Take B2: the binding result in experiment [4] is recorded as “binds”.
